Data from PMC12373997.
No constants are given. Whether binding was seen depends on the method and setting. Some binding calls cover weakened binding; strength is not graded here. Where a sequence is shown, tags or fusion partners need not be part of it.

Experiments:
[1] = molecular target: T1, D. melanogaster Msd5^Δ81–93 (HAUS7 ortholog)-EGFP, N-clamp fragment (D. melanogaster) (UniProt Q9W0G6); experiment: mass photometry; complex purified as a whole, 1 µl of 400 nM protein into 19 µl MP buffer (20 mM HEPES pH 7.4, 150 mM KCl, 1 mM MgCl2, 1 mM EGTA, or 1xPBS); both purified
T1 sequence: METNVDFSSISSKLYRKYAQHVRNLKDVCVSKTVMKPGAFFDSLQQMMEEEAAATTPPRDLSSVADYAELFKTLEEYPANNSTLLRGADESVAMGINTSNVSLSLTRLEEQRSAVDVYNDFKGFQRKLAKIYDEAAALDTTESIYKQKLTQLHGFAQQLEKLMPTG

[2] = molecular target: T2, D. melanogaster Dgt4 (HAUS8 ortholog)-HIS8, N-clamp fragment (D. melanogaster) (UniProt Q9W4M8); experiment: as above
T2 sequence: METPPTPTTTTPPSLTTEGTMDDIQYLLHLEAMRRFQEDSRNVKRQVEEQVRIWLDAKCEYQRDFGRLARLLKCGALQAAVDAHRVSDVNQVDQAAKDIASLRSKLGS

B1: D. melanogaster Dgt6 (HAUS6 ortholog), N-clamp fragment with the CH domain (domain or fragment, UniProt Q9VAP2 1-280)
chain: MDRTIIAPWKAEEKEQSEKLHRKLQGLALVHPLPDELRKLIAWDMFLKPNQVAFVHVMHYLFRLLDPAEFKRRFFWPITDKKSEANFRSSTVEYLKHLNEKHQLHWANIKSYLVVMPGGMRFINFLLEFVGFVIQELIKQREKSLGLEAGTPNVSAKVMARQNAVMKEYASSYVVNLEENTALLRDKTQKIRRLMADLSADMGVPEEQLADDGFLDEFEATAALGVERVITQPTERKFDLEASLCGLKEAIDLFQVKQAENNQSKEAVEKALRGMRVLFD
In the case of B1, the binding [1] is reported as “binds”.

B2: D. melanogaster Msd5^Δ81–93 (HAUS7 ortholog)-EGFP, N-clamp fragment (domain or fragment, UniProt Q9W0G6)
chain: T1 sequence
In the case of B2, the binding [2] is reported as “binds”.
